Test system: H441 cells
Assay: Illumina microarray gene expression analysis of H441 cells
Type: cell-based, human
Conditions: H441, 1 μM, 12 hours
Protocol: RNA Extraction and microarray sample processing: H441 cells were seeded in […] tissue culture plates at a density of 1×10^6 cells per well. The cells were allowed to attach and grow overnight and then treated with CLEFMA (n=5) at 1 μM in culture medium supplemented with 5% FBS. The DMSO concentration was maintained at 0.1% per well. Control wells (n=5) received equivalent volumes of DMSO without any test compound. The cells were kept in the treatment medium for 12 hours, after which the cells were washed twice with ice-cold Dulbecco's phosphate buffered saline (PBS). The total RNA was extracted using the RNAeasy kit (Qiagen, CA) as per the manufacturer's instructions. […]
The expression of >48,000 genes were compared using Illumina Human WG-6 v3 arrays. […] The cRNA was then hybridized overnight to Illumina BeadChips, and the microarray chips were washed with high stringency and labeled with streptavidin-Cy3 (Amersham Biosciences; Piscataway, N.J.) prior to scanning on an Illumina BeadArray Reader.
Microarray Data Analysis: The Illumina WG-6_v3 array data for each experimental condition were exported from the BeadStudio Software for further analysis. […] The genes that expressed below the noise level under all experimental conditions (approximately 1,600) were excluded from consideration, as their expression could not be reliably assessed. […]

SMILES: O=C(O)C=CC(=O)N1CC(=Cc2ccccc2Cl)C(=O)C(=Cc2ccccc2Cl)C1 [Compound 29, 4-[3,5-Bis-(2-chlorobenzylidene)-4-oxo-piperidin-1-yl]-4-oxo-2-butenoic acid]
- number of genes downregulated: 59
- number of genes stably upregulated (>1.5-fold): 95

— patent US9359196B2, “Antiproliferative compositions comprising curcumin analogs and methods of producing and using same” (The Board of Regents of the University of Oklahoma, priority 2009, dated 2016)
